# Source: the supplement of paper PMC12595434, “Development of retinoid nuclear receptor pathway antagonists through targeting aldehyde dehydrogenase 1A3” (iScience, 2025)
# By UniProt entry, the sequences of proteins in these tests, tags left out. Where a name states a change or a piece, a line headed by the entry shows the natural chain unless it says otherwise.
# UniProt Q8WXX5: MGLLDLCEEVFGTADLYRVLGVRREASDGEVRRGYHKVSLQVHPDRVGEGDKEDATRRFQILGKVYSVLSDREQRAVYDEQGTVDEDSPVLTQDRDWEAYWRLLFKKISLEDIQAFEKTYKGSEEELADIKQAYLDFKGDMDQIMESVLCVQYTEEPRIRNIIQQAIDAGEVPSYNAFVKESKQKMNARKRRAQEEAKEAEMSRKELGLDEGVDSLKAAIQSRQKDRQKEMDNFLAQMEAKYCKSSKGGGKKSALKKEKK
# UniProt Q96C92: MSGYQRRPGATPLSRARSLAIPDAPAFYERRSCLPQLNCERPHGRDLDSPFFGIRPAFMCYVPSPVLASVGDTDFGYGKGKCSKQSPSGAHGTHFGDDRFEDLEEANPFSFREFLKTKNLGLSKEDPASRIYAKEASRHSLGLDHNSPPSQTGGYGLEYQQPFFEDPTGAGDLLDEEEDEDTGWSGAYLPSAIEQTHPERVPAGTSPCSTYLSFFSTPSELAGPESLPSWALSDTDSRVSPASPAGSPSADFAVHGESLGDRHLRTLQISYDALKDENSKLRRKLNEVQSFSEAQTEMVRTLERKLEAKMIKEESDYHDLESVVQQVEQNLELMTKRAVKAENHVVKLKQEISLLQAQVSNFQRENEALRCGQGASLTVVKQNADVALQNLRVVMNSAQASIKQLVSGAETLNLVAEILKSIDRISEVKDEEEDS
# UniProt Q96DA2: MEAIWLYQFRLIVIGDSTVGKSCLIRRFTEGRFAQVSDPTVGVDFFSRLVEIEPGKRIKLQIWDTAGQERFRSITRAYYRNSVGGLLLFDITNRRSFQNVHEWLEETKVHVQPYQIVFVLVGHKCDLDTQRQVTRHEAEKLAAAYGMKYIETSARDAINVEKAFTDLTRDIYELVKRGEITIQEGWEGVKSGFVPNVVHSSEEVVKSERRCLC
# UniProt Q96CU9: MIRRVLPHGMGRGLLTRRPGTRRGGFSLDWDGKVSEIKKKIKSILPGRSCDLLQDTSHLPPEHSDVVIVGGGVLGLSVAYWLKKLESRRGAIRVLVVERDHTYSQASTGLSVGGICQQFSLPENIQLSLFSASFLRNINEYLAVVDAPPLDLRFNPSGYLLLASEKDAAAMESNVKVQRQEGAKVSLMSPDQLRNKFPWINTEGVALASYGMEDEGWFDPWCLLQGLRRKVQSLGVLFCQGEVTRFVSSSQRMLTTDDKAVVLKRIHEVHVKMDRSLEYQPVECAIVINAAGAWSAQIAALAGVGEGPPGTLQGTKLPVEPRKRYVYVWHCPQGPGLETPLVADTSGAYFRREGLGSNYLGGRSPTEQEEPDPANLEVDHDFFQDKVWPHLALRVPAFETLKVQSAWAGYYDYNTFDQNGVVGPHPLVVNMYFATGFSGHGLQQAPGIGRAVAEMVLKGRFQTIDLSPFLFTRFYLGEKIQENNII
# UniProt Q92506: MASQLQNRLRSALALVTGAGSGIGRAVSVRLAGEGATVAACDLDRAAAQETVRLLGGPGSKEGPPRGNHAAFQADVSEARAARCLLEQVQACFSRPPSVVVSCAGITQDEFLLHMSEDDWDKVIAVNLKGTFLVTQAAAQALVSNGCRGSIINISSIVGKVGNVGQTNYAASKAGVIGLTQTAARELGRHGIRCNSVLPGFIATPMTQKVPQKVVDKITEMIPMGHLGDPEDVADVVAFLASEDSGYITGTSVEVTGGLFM
# UniProt Q92870: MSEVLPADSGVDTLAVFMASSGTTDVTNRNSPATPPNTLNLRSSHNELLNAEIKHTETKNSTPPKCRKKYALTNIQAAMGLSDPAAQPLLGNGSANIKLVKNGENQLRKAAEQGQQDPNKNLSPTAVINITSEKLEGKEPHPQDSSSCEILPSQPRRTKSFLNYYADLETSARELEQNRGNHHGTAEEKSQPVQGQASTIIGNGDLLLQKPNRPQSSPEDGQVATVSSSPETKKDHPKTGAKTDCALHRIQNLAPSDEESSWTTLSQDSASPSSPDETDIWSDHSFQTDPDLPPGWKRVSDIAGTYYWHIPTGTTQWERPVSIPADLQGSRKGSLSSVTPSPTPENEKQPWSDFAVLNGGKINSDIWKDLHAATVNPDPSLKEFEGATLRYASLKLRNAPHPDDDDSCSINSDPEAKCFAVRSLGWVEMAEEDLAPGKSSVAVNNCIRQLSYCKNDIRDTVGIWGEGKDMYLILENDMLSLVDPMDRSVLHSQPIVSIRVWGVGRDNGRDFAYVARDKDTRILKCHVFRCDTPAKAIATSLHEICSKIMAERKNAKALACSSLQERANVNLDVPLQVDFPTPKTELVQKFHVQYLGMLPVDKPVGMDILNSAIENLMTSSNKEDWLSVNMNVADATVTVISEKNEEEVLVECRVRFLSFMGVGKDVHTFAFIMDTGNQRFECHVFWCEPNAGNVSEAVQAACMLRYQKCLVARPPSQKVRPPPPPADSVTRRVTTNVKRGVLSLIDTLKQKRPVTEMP
# UniProt Q96C86: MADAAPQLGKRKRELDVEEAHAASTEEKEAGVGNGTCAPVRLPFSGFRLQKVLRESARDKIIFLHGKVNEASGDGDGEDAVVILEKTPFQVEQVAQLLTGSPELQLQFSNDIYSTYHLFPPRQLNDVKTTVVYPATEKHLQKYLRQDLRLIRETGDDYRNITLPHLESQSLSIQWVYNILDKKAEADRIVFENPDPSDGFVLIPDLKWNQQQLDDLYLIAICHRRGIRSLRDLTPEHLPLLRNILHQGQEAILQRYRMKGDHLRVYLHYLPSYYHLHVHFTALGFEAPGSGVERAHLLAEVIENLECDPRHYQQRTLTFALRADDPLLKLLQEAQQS
# UniProt Q96CB8, whole entry: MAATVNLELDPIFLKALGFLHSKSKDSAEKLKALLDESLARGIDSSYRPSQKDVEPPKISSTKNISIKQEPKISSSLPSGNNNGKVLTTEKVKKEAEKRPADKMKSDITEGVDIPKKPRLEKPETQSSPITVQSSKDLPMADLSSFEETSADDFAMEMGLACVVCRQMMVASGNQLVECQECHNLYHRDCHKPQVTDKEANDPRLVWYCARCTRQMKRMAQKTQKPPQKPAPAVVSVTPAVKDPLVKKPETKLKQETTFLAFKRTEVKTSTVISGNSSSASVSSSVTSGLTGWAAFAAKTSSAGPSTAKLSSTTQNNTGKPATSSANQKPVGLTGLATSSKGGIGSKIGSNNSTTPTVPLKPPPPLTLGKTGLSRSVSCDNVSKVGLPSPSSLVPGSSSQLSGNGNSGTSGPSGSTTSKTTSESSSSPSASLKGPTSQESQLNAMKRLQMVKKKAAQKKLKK
# UniProt Q96AY2: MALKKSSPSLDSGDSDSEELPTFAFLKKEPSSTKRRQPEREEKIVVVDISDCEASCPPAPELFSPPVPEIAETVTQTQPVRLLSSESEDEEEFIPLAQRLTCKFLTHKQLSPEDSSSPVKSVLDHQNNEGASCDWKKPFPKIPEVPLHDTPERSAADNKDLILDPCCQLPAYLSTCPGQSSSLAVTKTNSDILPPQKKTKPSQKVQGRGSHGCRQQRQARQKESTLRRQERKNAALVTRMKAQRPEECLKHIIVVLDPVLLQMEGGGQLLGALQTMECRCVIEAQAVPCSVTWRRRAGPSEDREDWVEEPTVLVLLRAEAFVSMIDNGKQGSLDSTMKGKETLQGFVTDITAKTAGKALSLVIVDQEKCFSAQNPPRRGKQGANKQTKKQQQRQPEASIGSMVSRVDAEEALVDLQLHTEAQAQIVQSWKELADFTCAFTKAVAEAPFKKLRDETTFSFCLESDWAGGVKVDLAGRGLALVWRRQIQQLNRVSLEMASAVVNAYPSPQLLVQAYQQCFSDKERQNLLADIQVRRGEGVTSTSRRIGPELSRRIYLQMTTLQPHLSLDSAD
# UniProt Q92625: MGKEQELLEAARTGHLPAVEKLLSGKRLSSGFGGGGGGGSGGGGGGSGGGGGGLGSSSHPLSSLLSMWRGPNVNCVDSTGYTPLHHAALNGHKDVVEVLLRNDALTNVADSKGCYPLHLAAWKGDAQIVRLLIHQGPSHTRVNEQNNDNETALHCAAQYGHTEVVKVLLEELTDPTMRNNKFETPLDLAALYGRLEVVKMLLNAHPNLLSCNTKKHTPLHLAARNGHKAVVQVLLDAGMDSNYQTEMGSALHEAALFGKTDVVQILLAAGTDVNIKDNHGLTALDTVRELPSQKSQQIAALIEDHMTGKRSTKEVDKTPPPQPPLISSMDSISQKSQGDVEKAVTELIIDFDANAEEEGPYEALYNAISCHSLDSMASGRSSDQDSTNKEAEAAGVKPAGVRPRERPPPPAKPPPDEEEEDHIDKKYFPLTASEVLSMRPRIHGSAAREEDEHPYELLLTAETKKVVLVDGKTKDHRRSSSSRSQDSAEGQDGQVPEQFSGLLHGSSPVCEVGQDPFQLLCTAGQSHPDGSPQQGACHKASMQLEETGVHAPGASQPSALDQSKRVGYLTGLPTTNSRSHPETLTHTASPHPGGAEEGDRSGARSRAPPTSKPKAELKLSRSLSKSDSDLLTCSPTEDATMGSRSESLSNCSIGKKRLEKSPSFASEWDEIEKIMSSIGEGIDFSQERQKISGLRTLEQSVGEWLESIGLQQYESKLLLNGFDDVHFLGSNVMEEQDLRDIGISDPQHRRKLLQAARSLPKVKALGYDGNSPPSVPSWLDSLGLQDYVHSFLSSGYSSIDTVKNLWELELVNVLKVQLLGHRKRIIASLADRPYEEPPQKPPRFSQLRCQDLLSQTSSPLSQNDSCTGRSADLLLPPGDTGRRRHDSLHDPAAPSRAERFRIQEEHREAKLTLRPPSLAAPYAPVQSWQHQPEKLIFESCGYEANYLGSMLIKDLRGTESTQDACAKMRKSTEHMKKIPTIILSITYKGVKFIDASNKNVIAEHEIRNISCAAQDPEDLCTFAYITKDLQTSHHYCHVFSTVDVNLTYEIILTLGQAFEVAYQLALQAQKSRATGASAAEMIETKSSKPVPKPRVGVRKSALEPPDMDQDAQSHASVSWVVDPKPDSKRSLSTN
# UniProt Q96B01: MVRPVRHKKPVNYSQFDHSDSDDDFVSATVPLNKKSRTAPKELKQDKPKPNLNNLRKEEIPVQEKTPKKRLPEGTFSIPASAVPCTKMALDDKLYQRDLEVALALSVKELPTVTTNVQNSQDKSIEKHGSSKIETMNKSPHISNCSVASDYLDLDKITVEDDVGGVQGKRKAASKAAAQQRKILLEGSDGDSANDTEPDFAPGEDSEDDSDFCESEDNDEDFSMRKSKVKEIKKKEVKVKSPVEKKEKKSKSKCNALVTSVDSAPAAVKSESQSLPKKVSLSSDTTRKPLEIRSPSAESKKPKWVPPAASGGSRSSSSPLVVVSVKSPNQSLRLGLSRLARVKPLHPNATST
# UniProt Q969N2: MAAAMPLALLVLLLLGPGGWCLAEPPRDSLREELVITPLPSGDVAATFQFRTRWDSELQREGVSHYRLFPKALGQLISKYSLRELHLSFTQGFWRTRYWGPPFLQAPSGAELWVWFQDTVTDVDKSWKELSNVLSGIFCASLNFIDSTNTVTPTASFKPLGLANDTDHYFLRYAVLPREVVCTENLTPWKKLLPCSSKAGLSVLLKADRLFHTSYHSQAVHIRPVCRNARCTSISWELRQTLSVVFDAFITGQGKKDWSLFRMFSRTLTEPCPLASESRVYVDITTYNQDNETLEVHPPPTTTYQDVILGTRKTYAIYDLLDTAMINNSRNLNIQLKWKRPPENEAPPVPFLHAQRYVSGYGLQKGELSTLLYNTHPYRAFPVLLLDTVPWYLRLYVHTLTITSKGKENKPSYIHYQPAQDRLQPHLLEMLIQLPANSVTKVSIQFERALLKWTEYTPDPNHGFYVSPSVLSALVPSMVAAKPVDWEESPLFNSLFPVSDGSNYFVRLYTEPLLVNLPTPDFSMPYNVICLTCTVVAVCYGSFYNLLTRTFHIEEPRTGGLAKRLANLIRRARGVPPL
# UniProt Q96EB6: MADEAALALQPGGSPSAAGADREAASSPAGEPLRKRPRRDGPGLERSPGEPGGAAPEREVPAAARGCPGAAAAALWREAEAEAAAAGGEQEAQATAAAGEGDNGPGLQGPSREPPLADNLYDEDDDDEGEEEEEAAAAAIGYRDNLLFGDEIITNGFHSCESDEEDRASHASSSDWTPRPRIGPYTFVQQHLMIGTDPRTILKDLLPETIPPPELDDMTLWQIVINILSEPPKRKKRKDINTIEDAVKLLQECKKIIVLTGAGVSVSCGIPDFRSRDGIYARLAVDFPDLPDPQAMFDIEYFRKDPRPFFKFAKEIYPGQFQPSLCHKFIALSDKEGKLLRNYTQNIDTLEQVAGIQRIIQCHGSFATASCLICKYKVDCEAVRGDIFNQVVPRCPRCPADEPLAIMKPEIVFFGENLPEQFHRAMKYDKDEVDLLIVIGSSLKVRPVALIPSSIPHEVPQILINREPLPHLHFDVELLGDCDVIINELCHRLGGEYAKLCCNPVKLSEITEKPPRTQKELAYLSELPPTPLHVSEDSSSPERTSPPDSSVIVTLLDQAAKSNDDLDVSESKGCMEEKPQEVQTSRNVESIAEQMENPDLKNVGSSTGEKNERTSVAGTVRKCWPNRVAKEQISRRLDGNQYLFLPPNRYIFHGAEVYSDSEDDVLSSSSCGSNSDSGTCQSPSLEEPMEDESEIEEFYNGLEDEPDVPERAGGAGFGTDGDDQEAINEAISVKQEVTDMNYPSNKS
# Some of the results follow. Single values of this set are uncertain.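 Tm was set to 64 °C where no melting was found, and many curves are irregular.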
# Compound: CCc1cnccc1C(=O)Nc1cc2c(cc1F)NC(=O)CC2
# Assay: melting temperature shift (DMSO Tm minus MBE1-treated Tm) in cellular thermal proteome profiling; higher = less thermal stabilization by MBE1 (negative = stabilized by MBE1)
# Conditions: A375
Target,melting temperature shift (MBE1 concentration: 100 nM),melting temperature shift (MBE1 concentration: 1 uM)
FAM120B (UniProt Q96EK7),-0.775 °C,0.409 °C
DNAJC9 (UniProt Q8WXX5),0.11 °C,0.342 °C
UniProt Q8WWQ0,-0.168 °C,-2.04 °C
PHKB (UniProt Q93100),0.659 °C,0.0244 °C
WASF1 (UniProt Q92558),-3.36 °C,0.635 °C
SNRNP40 (UniProt Q96DI7),-0.335 °C,0.248 °C
VPS33A (UniProt Q96AX1),-0.0141 °C,-0.299 °C
ZNF622 (UniProt Q969S3),-1.17 °C,0.758 °C
ALG3 (UniProt Q92685),0.0738 °C,0.686 °C
SEC14L1 (UniProt Q92503),-4.79 °C,-2.98 °C
UniProt Q96C92,-4.23 °C,-6.55 °C
UniProt Q96DA2,1.25 °C,1.87 °C
UniProt Q96B45,-4.35 °C,-0.537 °C
FOXRED1 (UniProt Q96CU9),-0.516 °C,0.14 °C
HSD17B8 (UniProt Q92506),0.00671 °C,-4.77 °C
PXDN (UniProt Q92626),-2.88 °C,-3.14 °C
UniProt Q8WYL5,0.214 °C,0.055 °C
APBB2 (UniProt Q92870),-0.194 °C,1.25 °C
NSUN4 (UniProt Q96CB9),0.114 °C,0.366 °C
CTNNBL1 (UniProt Q8WYA6),0.0192 °C,0.141 °C
ISG20 (UniProt Q96AZ6),1.06 °C,0.812 °C
RUFY2 (UniProt Q8WXA3),-0.677 °C,-0.513 °C
LMO7 (UniProt Q8WWI1),-0.988 °C,-0.899 °C
UniProt Q8WWN8,-0.759 °C,-0.263 °C
DDX1 (UniProt Q92499),0.263 °C,0.0488 °C

# Some of the entries so far, tab-delimited.
Target	melting temperature shift (MBE1 concentration: 100 nM)	melting temperature shift (MBE1 concentration: 1 uM)
UniProt Q96B45	-4.35 °C	-0.537 °C
FOXRED1 (UniProt Q96CU9)	-0.516 °C	0.14 °C
HSD17B8 (UniProt Q92506)	0.00671 °C	-4.77 °C

# Next part:

Target,melting temperature shift (MBE1 concentration: 100 nM),melting temperature shift (MBE1 concentration: 1 uM)
PPP1R14B (UniProt Q96C90),-1.14 °C,0.219 °C
DNAJC19 (UniProt Q96DA6),-0.61 °C,0.463 °C
DCPS (UniProt Q96C86),-0.988 °C,-1.79 °C
UniProt Q96CB8,-0.308 °C,-0.705 °C
UniProt Q92843,-0.462 °C,-3.14 °C
UniProt Q96AY2,-8.82 °C,-1.75 °C
ANKS1A (UniProt Q92625),-0.996 °C,-0.0448 °C
UTP4 (UniProt Q969X6),-0.516 °C,0.188 °C
ANP32B (UniProt Q92688),-0.174 °C,0.00671 °C
UniProt Q969X0,0.183 °C,-0.626 °C
UniProt Q96DU7,-1.39 °C,-0.794 °C
UniProt Q92834,-0.718 °C,0.201 °C
RAD51AP1 (UniProt Q96B01),-0.49 °C,-0.868 °C
GEMIN6 (UniProt Q8WXD5),-2.62 °C,-1.99 °C
TBRG4 (UniProt Q969Z0),-0.609 °C,-0.0577 °C
UniProt Q92766,1.61 °C,1.83 °C
PIGT (UniProt Q969N2),0.14 °C,1.21 °C
ATRIP (UniProt Q8WXE1),0.672 °C,-0.122 °C
UniProt Q92614,0.366 °C,-0.122 °C
SREK1 (UniProt Q8WXA9),0.287 °C,-0.385 °C
CKAP2 (UniProt Q8WWK9),-1.37 °C,-0.839 °C
LPIN2 (UniProt Q92539),1.8 °C,0.934 °C
UniProt Q96BT7,0.438 °C,0.328 °C
FERMT2 (UniProt Q96AC1),-0.215 °C,0.657 °C
SIRT1 (UniProt Q96EB6),0.33 °C,-0.263 °C
